Experimental data published in patent US12071469B2, “Peptide compounds for suppressing inflammation” (Duke University, priority 2011, dated 2024).
Some results were stated once for a whole list of compounds, not compound by compound.

System: primary rat neuronal cortical culture exposed to NMDA
Experiment: Neuroprotection from NMDA mediated cell death in primary neuronal culture (LDH release)
Format: cell-based
Conditions: peptide 1 μM
Procedure: Peptides of 5 amino acids in length were applied to one or more samples of cells in parallel at concentrations ranging from about 0 to about 50 μM, such as 0.3, 3, and 30 μM. The peptides AL-10-1 (SEQ ID NO:18) and VL-17-9 (SEQ ID NO:19), which are longer peptides (12 amino acids each) were used as negative and positive controls, respectively. A series of peptides were screened in primary rat neuronal cortical culture exposed to NMDA using the method described in Aono et al., Neuroscience (2003) 116:437 and Aono et al., Neurobiology of Disease (2002) 11:214, both of which are incorporated by reference in their entirety (see Table 2). Neuroprotection from NMDA mediated cell death in primary neuronal culture was expressed as percentage decrease in LDH, 24 hours after exposure to NMDA compared to vehicle treated cultures (Table 2). LDH release is indicative of neuronal death after NMDA exposure. The peptide VR-55 (SEQ ID NO:4) reduced NMDA mediated excitotoxic cell death by approximately 19% at a concentration of 1 μM. […] The positive control peptide VL-17-9 reduced LDH release by 31%.
Dose response of the neuroprotection from NMDA excitotoxicity in primary neuronal culture was determined for ApoE mimetic peptide VR-55 (SEQ ID NO: 4). […]

Ac-VSRRR-NH2 [VR-55, Ac-VSRRR-NH2]
suppression of LDH release, cumulative data: greater than 20%

Ac-LRVRLASLLRKL-NH2 (N-acetyl; C-amide; ApoE mimetic peptide sequence) [VL-17-9, longer peptide (12 amino acids) used as positive control, reference compound]
suppression of LDH release, cumulative data: greater than 20%
